Results taken from PubChem BioAssay AID1347076 (National Center for Advancing Translational Sciences (NCATS), 2019).
In all, about 400,000 compounds went through this assay and about 13,000 (3.2%) were called active. This list was built around the results that the source calls inconclusive (neither active nor inactive); the mix of calls is not that of the screen. Calls follow the shape of the dose curve; as a rule, active = well fitted cell-killing curve with a large enough effect; inconclusive = small, poorly fitted or top-dose-only effect, or effect the other way; inactive = flat fitted curve, though single readings scatter. Potencies beside an inconclusive call are fits to weak or partial responses and may not hold up.

assay: qHTS assay for MDR1-selective chemotherapeutics: Primary screen using the drug-selected MDR subline cells KB-V1; conditions: KB-V1 MDR cells viability, CellTiter-Glo, 72 h; activity change, negative = cytotoxicity: at 46.1 µM (top of the series); also: nearly all actives have a fitted effect of over 60% in size
In short: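 Luminescent ATP read-out (CellTiter-Glo, 10 min) measures survival of drug-selected KB-V1 MDR cells after 72 h, 37 degrees C compound exposure. Medium: phenol-red-free DMEM, 10% FBS. Values from fitted concentration-response curves.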
% is scaled to controls: 0 for no effect and ±100 for the full control effect; potency is read from the fitted curve at half-maximal effect.

Compound | Potency | activity change, negative = cytotoxicity
COc1cc2c(cc1OC)C(C)N(C(=O)c1c(-c3ccccc3)noc1C)CC2 (stereo not drawn) | active: 20.6 µM | 
O=C(CC1c2ccccc2Oc2ccccc21)NCc1ccco1 | inconclusive: 20.6 µM [cytotoxic, single point] | 
CC(N1CCOC1=O)S(=O)(=O)c1ccccc1 (stereo not drawn) |  | inactive: 14.9%
COc1ccccc1C1=CN(Cc2ccccc2)CCC1=O |  | inactive: 15.7%
Cc1ccc(C)c(Cn2cnc3c(cnn3C(C)(C)C)c2=O)c1 | inconclusive: 18.4 µM [cytotoxic, partial curve] | 
CCOC(=O)c1cnc2ccc(OCC)cc2c1NCc1ccccc1 | active: 1.84 µM | 
O=C(NCC1CC1)C1Cc2c(-c3ccc(Cl)cc3)ccnc2O1 (stereo not drawn) | inconclusive: 29.1 µM [cytotoxic, single point] | 
CCN=c1scc(-c2ccco2)n1/N=C/c1ccc(O)cc1 |  | inactive: 7.77%
COc1ccc(-c2cc(C(=O)N3CCCCCC3)c3ccccc3n2)cc1 | inconclusive: 23.1 µM [cytotoxic, single point] | 
COc1ccc(S(=O)(=O)N2CCOCC2)cc1C(=O)Nc1ccc(N2CCCCCC2)cc1 | inconclusive: 29.1 µM [rising, single point] | 
COc1ccc(S(=O)(=O)Nc2ccc(Cc3ccncc3)cc2)cc1OC | inconclusive: 29.1 µM [cytotoxic, single point] | 
CCN(CC)CCCNc1nc2ccccc2c2nc(-c3ccncc3)nn12 | inconclusive: 29.1 µM [cytotoxic, single point] | 
N#C/C(=C(/O)c1ccc(Cl)cc1)c1nc2ccccc2[nH]1 |  | inactive: 21.5%
COc1ccc(CN2CCN(C(c3ccc(F)cc3)c3ccc(F)cc3)CC2)c(OC)c1OC | active: 18.4 µM | 
CC(=O)Nc1ccc(C=CC(=O)c2ccc([N+](=O)[O-])cc2)cc1 |  | inactive: -4.54%
COc1cc(NC(=S)NCCCO)c(OC)cc1Cl |  | inconclusive: 30.4%
CN(C)C(CNC(=O)c1cccc(S(=O)(=O)Nc2ccccc2Cl)c1)c1ccccc1 (stereo not drawn) | inconclusive: 29.1 µM [cytotoxic, single point] | 
Cc1nn2c(NCCCN(C)C)c3c(nc2c1-c1ccccc1)CCC3 |  | inactive: -23.7%
Cc1cc(C)cc(N(CC(=O)NC(C)C)C(=O)CCC(=O)Nc2ccccn2)c1 |  | inactive: -20.5%
N/C(=N\OS(=O)(=O)c1ccc2ccccc2c1)c1ccncc1 | inconclusive: 18.4 µM [rising, partial curve] | 
O=C(O)C1CCCCC1C(=O)NC1C2CC3CC(C2)CC1C3 (stereo not drawn) | inconclusive: 29.1 µM [rising, single point] | 
O=C(Nc1nc2ccccc2[nH]1)c1ccccc1O |  | inactive: -5.28%
CC(=O)N1CCN(C(=O)c2cccc(NS(=O)(=O)c3ccc(Br)cc3)c2)CC1 |  | inactive: 22.4%
Cc1ccccc1NC(NC(=O)c1cccnc1)C(Cl)(Cl)Cl (stereo not drawn) | inconclusive: 16.4 µM [cytotoxic, partial curve] | 
COc1cccc(NC(=O)c2ccccc2N(Cc2ccccc2)S(C)(=O)=O)c1 | inconclusive: 23.1 µM [cytotoxic, partial curve, poor fit] | 

Compound | Potency | activity change, negative = cytotoxicity
Cc1nnc2sc(COc3ccccc3)nn2c1=O | inconclusive: 20.6 µM [rising, single point] | 
Cc1cccc(-c2ccc3[nH]c4c(c3c2)CCN2C[C@@H]([C@H](C)O)[C@@H](N(C)C(=O)NC3CCCCC3)C[C@@H]42)c1 |  | inactive: -7.61%
CC1Cc2cc(S(=O)(=O)N3CCC(C(=O)N4CCCCC4)CC3)ccc2N1C(=O)C1CC1 (stereo not drawn) |  | inactive: -14%
Cc1cc(NC(=O)C2C3C(=O)N(CC4CCCO4)C(C(=O)NCc4ccccc4)C34C=CC2(C)O4)no1 (stereo not drawn) |  | inactive: 20.8%
O=C(C1CCCN(S(=O)(=O)c2cccc3nsnc23)C1)N1CCN(c2cccc(Cl)c2)CC1 (stereo not drawn) | inconclusive: 18.4 µM [cytotoxic, single point] | 
CC(=O)c1c(C)[nH]c(C(=O)Nc2ccc(N3CCCCCC3)cc2)c1C |  | inactive: -7.28%
Cc1cc(C)n(CC(O)COc2ccccc2C(=O)Nc2ccccc2)n1 (stereo not drawn) | inconclusive: 20.6 µM [cytotoxic, single point] | 
C/C(=N/NC(=O)c1cccc(Br)c1)C1CC2CCC1C2 (stereo not drawn) | inconclusive: 20.6 µM [rising, single point] | 
CC(C#N)(NC(=O)CN1CCN(S(=O)(=O)c2cccc(F)c2)CC1)C1CC1 (stereo not drawn) |  | inactive: -16.1%
O=[N+]([O-])c1ccccc1CNCCO | inconclusive: 29.1 µM [rising, single point] | 
C=CCn1c(-c2ccc(F)cc2)n[nH]c1=S |  | inactive: -5.99%
CN(Cc1c(F)cccc1Cl)C(=O)CNC(=O)c1cccs1 |  | inactive: 0%
CC(C)c1ccc2oc(-c3cc(N)ccc3O)nc2c1 | active: 18.4 µM | 
CCOc1cccc(C(=O)Nc2ccc3c(c2)OCCO3)c1 | inconclusive: 20.6 µM [cytotoxic, single point] | 
CCOc1cc(N2CCOCC2)c(OCC)cc1NC(=O)CN1CCc2ccccc2C1 | inconclusive: 20.6 µM [cytotoxic, single point] | 
Brc1ccccc1CN1CCN(Cc2c[nH]c3ccccc23)CC1 | inconclusive: 16.4 µM [cytotoxic, partial curve] | 
COc1ccc(C(=O)NCC2(c3ccc(OC)c(OC)c3)CCCC2)cc1OC | inconclusive: 8.2 µM [cytotoxic, partial curve] | 
Cc1ccc(NC(=O)CSc2ccccc2NC(=O)c2ccccc2)cc1Cl | inconclusive: 2.59 µM [cytotoxic, full curve] | 
CCCN1CCc2nc(N3CCN(C)CC3)ncc2C1 | inconclusive: 29.1 µM [rising, single point] | 
Cc1ccc2nc(-c3ccccn3)c(Nc3ccccc3C)n2c1 | active: 0.731 µM | 
O=C(C1CCN(S(=O)(=O)c2cccs2)CC1)N(c1ccccn1)C1CCCCC1 | inconclusive: 11.6 µM [cytotoxic, partial curve, poor fit] | 
Cc1c(NC(=O)/C(C#N)=C/c2ccc(-c3cccc(Cl)c3)o2)c(=O)n(-c2ccccc2)n1C | active: 9.2 µM | 
CC(C)(C)C1CCc2[nH]c3ccccc3c(=O)c2C1 (stereo not drawn) | inconclusive: 29.1 µM [cytotoxic, single point] | 
CCOC(=O)CCCCCC(=O)Nc1ccc2c(c1)C(=O)N([C@H](C)CO)C[C@@H](C)[C@H](CN(C)Cc1ccc3c(c1)OCO3)O2 | inconclusive: 0.58 µM [rising, full curve, poor fit] | 
CCc1cccc(C)c1NS(=O)(=O)c1ccc2c(c1)CC(C)N2C(=O)C1CC1 (stereo not drawn) | inconclusive: 14.6 µM [cytotoxic, single point] | 

4 records picked at random from the list so far, as already listed:
Compound | Potency | activity change, negative = cytotoxicity
CCOc1cccc(C(=O)Nc2ccc3c(c2)OCCO3)c1 | inconclusive: 20.6 µM [cytotoxic, single point] | 
CN(Cc1c(F)cccc1Cl)C(=O)CNC(=O)c1cccs1 |  | inactive: 0%
CCOC(=O)c1cnc2ccc(OCC)cc2c1NCc1ccccc1 | active: 1.84 µM | 
O=C(CC1c2ccccc2Oc2ccccc21)NCc1ccco1 | inconclusive: 20.6 µM [cytotoxic, single point] | 

Later entries

Compound | Potency | activity change, negative = cytotoxicity
O=[N+]([O-])c1cc2c(cc1C=Nc1ccccc1)OCO2 | inconclusive: 29.1 µM [rising, single point] | 
O=[N+]([O-])c1ncn(C23CC4CC(CC(C4)C2)C3)n1 | inconclusive: 1.84 µM [cytotoxic, full curve] | 
CS(=O)(=O)c1cccc(C(=O)OCC(=O)c2ccc3c(c2)OCCO3)c1 |  | inactive: 4.89%
O=C(Nc1ccccc1F)C1(c2ccccc2)CC1(Cl)Cl (stereo not drawn) | inconclusive: 16.4 µM [cytotoxic, single point] | 
COc1cc(N2N=C(c3ccccc3)CC2c2ccccc2)c(C=O)cc1C=O (stereo not drawn) | inconclusive: 18.4 µM [cytotoxic, partial curve] | 
COc1cccc(Cl)c1NC(=O)N1CCN(c2ccnc3cc(Cl)ccc23)CC1 | inconclusive: 18.4 µM [cytotoxic, single point] | 
CC1CCCN(C(=O)CNC(=O)c2sc3ccccc3c2Cl)C1 (stereo not drawn) | inconclusive: 6.51 µM [cytotoxic, partial curve] | 
CC(C)C[C@H](NC(=O)c1[nH]cnc1C(=O)Nc1ccc(CNC(=O)OC(C)(C)C)cc1)C(=O)OCc1ccccc1 | inconclusive: 29.1 µM [cytotoxic, single point] | 
Cc1ccc(CN2CCN(C(=O)CCC(=O)Nc3nnc(C(C)C)s3)CC2)c(C)c1 | inconclusive: 3.66 µM [cytotoxic, partial curve] | 
O=C(CN(c1ccccc1)S(=O)(=O)c1ccc(F)cc1)NC1CCS(=O)(=O)C1 (stereo not drawn) |  | inactive: -6.28%
CCSc1oc(-c2ccco2)nc1S(=O)(=O)c1ccc(C)cc1 | inconclusive: 3.66 µM [cytotoxic, full curve] | 
O=c1[nH]c(CSc2nnc(-c3cccnc3)n2C2CCCCC2)nc2ccccc12 | inconclusive: 6.51 µM [cytotoxic, partial curve] | 
COc1ccc(N(CC(=O)N2CCc3ccccc32)S(=O)(=O)c2c(C)nn(C)c2C)cc1 |  | inactive: 0.901%
O=C(NCC(c1cccs1)S(=O)(=O)c1cccs1)c1c(F)cccc1F (stereo not drawn) |  | inactive: -6.27%
CCOC(=O)Cn1c(=O)n(CC2CCCO2)c2nc(-c3cc(OC)ccc3OC)nc(C(N)=O)c21 (stereo not drawn) |  | inconclusive: -33%
O=C(O)c1sccc1Oc1ccc(NS(=O)(=O)c2cccc(F)c2)cc1 | inconclusive: 8.2 µM [rising, partial curve] | 
COc1ccc(CCNC(=O)CCc2c(C)nc3cc(-c4cccc(F)c4)nn3c2C)cc1OC |  | inactive: -18.7%
COc1cc(/C=C2/CCc3ccccc3C2=O)cc(OC)c1OC | active: 11.6 µM | 
C=CCn1c(N(C)C)nc2c1c(=O)[nH]c(=O)n2C |  | inactive: 3.83%
Nc1ccc(C(=O)N/N=C\c2cc(N=Nc3cccc4ccccc34)ccc2O)cc1 | inconclusive: 4.61 µM [cytotoxic, full curve] | 
CC(=O)N1N=C(c2ccco2)CC1c1cccs1 (stereo not drawn) |  | inactive: 9.62%
COc1cc(C#Cc2c(C=O)n(C)c3ccccc23)cc(OC)c1 |  | inactive: -27.9%
COc1ccc(C(CNC(=O)c2cccc3cccnc23)N(C)C)cc1 (stereo not drawn) | inconclusive: 9.2 µM [cytotoxic, partial curve] | 
